No constants are given. Whether binding was seen depends on the method and setting. Binding seen in cells or lysates may run through a third protein. Some binding calls cover weakened binding; strength is not graded here.
Assays:
[1] = molecular target: T1, endogenous SIRT1 (mouse (endogenous in NSC-34)) (UniProt Q923E4); experiment: co-IP; endogenous proteins in NSC‐34 cells; the endogenous sirtuin precipitated, endogenous GARS detected by blot
T1 sequence: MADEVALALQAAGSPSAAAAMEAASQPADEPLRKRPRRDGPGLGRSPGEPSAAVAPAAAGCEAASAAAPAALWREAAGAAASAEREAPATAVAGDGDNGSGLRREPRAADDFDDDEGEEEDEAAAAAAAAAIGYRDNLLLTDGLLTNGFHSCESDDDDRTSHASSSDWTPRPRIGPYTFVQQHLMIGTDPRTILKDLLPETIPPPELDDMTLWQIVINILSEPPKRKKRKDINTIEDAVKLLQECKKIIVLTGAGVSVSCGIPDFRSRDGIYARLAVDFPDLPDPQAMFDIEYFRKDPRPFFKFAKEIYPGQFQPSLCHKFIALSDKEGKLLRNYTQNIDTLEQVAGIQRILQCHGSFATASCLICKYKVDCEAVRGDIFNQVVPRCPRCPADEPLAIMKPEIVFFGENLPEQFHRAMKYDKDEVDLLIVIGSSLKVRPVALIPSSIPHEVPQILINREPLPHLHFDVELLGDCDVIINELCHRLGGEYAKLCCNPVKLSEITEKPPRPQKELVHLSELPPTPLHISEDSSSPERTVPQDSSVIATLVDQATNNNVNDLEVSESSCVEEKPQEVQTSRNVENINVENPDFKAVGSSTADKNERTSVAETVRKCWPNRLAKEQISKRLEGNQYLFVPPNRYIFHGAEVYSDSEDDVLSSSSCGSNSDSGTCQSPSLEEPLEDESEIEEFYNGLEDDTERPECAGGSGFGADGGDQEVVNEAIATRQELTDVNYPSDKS

[2] = molecular target: T2, endogenous SIRT2 of NSC‐34 cells (mouse (endogenous in NSC-34)) (UniProt Q8VDQ8); experiment: as above
T2 sequence: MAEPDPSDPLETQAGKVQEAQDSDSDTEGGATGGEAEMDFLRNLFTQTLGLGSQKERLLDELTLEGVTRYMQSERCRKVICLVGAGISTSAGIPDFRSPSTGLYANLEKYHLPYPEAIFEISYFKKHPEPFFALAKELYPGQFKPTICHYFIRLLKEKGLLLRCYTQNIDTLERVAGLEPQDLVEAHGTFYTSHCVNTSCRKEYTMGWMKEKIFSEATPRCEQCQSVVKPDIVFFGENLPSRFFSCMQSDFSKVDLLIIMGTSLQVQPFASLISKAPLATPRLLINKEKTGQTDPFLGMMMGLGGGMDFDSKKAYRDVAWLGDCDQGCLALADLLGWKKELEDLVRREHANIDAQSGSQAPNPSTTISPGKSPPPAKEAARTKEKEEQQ

B1: endogenous glycyl‐tRNA synthetase (GARS) of NSC‐34 cells (enzyme, UniProt Q9CZD3 34-729)
chain: LSAPAQPAASRSSMDSAEELLAPLRLAVRQQGDFVRKLKEDKAPQVDVDRAVAELKARKRVLEAKELALQPKDDIVDRAKMEDTLKRRFFYDQAFAIYGGVSGLYDFGPVGCALKNNIIQAWRQHFIQEEQILEIDCTMLTPEPVLKTSGHVDKFADFMVKDVKNGECFRADHLLKAHLQKLMSDKKCSAEKKSEMESVLAQLDNYGQQELADLFVNYNVKSPTTGNDLSPPVPFNLMFQTFIGPGGNMPGYLRPETAQGIFLNFKRLLEFNQGKLPFAAAQIGNSFRNEISPRSGLIRVREFTMAEIEHFVDPTEKDHPKFQSVADLCLYLYSAKAQVTGQSARKMRLGDAVEQGVINNSVLGYFIGRIYLYLTKVGISPDKLRFRQHMENEMAHYACDCWDAESKTSYGWIEIVGCADRSCYDLSCHARATKVPLVAEKPLKEPKTVNVVQFEPNKGAVGKAYKKDAKLVLEYLSACDECYISEMELLLSEKGEFTIETEGKTFQLTKDMVSVKRFQKTLHVEEVVPSVIEPSFGLGRIMYTILEHTFHVREGDEQRTFFSFPAVVAPFKCSVLPLSQNQEFMPFVKELSEALTRNGVSHKVDDSSGSIGRRYARTDEIGVAFGITIDFDTVNKTPHTATLRDRDSMRQIRAEVSELPNVVRDLANGNITWADVEARYPLFEGQETGKKETVEE
[1]
  binding: no binding
[2]
  binding: binds

From publication PMC8208790
